Laboratory results as given in patent US20220184177A1.
Results are given in words; binding and its absence hold for the method and conditions named. Some binding calls cover weakened binding; strength is not graded here.

The chains behind the UniProt entries cited, without tags or fusion partners.
UniProt P03372: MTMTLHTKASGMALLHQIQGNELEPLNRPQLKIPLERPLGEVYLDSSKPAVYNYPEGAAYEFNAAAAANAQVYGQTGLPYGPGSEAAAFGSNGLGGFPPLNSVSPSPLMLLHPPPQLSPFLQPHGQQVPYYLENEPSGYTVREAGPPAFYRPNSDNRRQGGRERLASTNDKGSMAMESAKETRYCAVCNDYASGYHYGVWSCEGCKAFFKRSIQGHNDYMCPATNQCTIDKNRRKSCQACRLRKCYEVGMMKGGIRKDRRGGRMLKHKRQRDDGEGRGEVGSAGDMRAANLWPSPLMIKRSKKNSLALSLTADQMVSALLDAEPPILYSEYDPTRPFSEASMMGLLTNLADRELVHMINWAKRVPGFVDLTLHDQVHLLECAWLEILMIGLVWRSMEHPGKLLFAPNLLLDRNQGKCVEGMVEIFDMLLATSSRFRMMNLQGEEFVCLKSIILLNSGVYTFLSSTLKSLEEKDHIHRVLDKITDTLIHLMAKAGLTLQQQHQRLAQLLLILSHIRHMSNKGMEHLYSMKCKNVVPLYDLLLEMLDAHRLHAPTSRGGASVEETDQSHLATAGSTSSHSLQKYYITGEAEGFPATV
UniProt P05412: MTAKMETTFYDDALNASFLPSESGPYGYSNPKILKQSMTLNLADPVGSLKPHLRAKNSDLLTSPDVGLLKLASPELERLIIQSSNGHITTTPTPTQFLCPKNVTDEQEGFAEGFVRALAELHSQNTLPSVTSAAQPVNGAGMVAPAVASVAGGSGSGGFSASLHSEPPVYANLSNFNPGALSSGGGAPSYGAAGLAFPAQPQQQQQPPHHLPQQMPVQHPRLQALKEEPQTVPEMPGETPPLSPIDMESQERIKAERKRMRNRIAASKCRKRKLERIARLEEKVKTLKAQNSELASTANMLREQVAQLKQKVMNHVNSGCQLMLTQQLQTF

Legend:
[1] = target: Estrogen Receptor α (UniProt P03372); experiment: BLI binding curves on ERα
[2] = target: His-tagged recombinant c-Jun (UniProt P05412); experiment: BLI competition assay, CAPER-alone reference curve on c-Jun tips without peptide
[3] = target: Estrogen Receptor α (UniProt P03372); experiment: BLI competition assay, CAPER-alone reference curve on ER without peptide
[4] = target: His-tagged recombinant c-Jun (UniProt P05412); experiment: BLI (Octet), His-tagged c-Jun captured on anti-His tips, full-length CAPER in solution

binding [1]: binds
binding [2]: binds
binding [3]: binds
binding [4]: binds
B1: Recombinant Full-Length CAPER HCC1.3 (protein)
chain: ADDIDIEAMLEAPYKKDENKLSSANGHEERSKKRKKSKSRSRSHERKRSKSKERKRSRDRERKKSKSRERKRSRSKERRRSRSRSRDRRFRGRYRSPYSGPKFNSAIRGKIGLPHSIKLSRRRSRSKSPFRKDKSPVREPIDNLTPEERDARTVFCMQLAARIRPRDLEEFFSTVGKVRDVRMISDRNSRRSKGIAYVEFVDVSSVPLAIGLTGQRVLGVPIIVQASQAEKNRAAAMANNLQKGSAGPMRLYVGSLHFNITEDMLRGIFEPFGRIESIQLMMDSETGRSKGYGFITFSDSECAKKALEQLNGFELAGRPMKVGHVTERTDASSASSFLDSDELERTGIDLGTTGRLQLMARLAEGTGLQIPPAAQQALQMSGSLAFGAVADLQTRLSQQTEASALAAAASVQPLATQCFQLSNMFNPQTEEEVGWDTEIKDDVIEECNKHGGVIHIYVDKNSAQGNVYVKCPSIAAAIAAVNALHGRWFAGKMITAAYVPLPTYHNLFPDSMTATQLLVPSRR
